# Data as given in patent publication US11666642B2, “PDE5 compositions and methods for immunotherapy” (Obsidian Therapeutics, Inc., priority 2017, dated 2023).
# At least one compound was matched to its structure with a doubt left.
# Test system: NIH 3T3 cells
# Test: Western blot analysis using a GFP antibody, hPDE5 C terminal mutants
# Details: hPDE5 mutant construct, 24 hours and 48 hours, vs untreated cells
compound,measurement,setting,value
CCCc1nc(C)c2c(=O)[nH]c(-c3cc(S(=O)(=O)N4CCN(CC)CC4)ccc3OCC)nn12 [Vardenafil],GFP protein levels by western blot,0.1 μM ligand,showed stabilization of GFP levels
same,GFP protein levels by western blot,1 μM ligand,showed stabilization of GFP levels
